Assay results taken from patent US20140348958A1, “Anticancer Active Ingredient From Guiera Senegalensis” (UNIVERSITE D'AUVERGNE CLERMONT I, priority 2011, published 2014).
Read-outs that look alike come from different tables or passages of the source.

System: mammary cancer cells MCF-7
Assay: Proliferation measurement of mammary cancer cells MCF-7 (resazurin, 72 hrs exposure)
Format: cell-based
Settings: Homo sapiens
Experimental: Detailed Procedure of the Proliferation Measurement of Mammary Cancer Cells MCF-7
1st Part Day 1: Sowing the Cells
1. Preparation of the Medium:
• Preparation of the volume to be put into the plates:
In a 50 mL Falcon, prepare 30 mL of complete RPMI with 10% FCS and 1% Glutamine: 27 mL of RPMI: 3 mL of FCS and 300 μL of Glutamine.
2. Preparation of the Cell Suspension:
• Suck up the medium contained in the flask with the vacuum pump • Rinse with 3 mL of PBS and suck up with the vacuum pump • Add 1 mL of trypsin and let it act for 3 mins in the oven at 37° C. in order to detach the cells. • When the cells are detached, add 2 mL of complete medium prepared previously for inactivating the trypsin. • Mix well the suspension by suction-discharge and transfer into a well-defined Falcon 15. • Count the cells in a Malassez cell: carry out dilution to one 20th for counting them with Trypan blue.
• Sow the plates with 200 μL of cell suspension according to the determined scheme • Put 200 μL of water in the peripheral wells • Leave for incubation for 24 hours.
2nd Part: Day 2, the Extract is Exposed
4. Preparation of the Medium:
A total of 45 mL of medium to be prepared in a Falcon 50 sterilized i.e. 40.5 mL of RPMI+4.5 mL of FCS+450 μL of glutamine
5. Preparation of the Extracts:
• prepare a 10 mg/mL solution: • Dissolve 8.1 mg of crude extract (noted as SF) according to Example 1, of the SF 5 fraction according to Example 2 or of the KP-18^E fraction (Guieranone B) in 810 μL of DMSO • Prepare the mother solution of extract (Ex) at 100 μg/mL i.e. 50 μL of (10 mg/ml) in 4,950 μL of RPMI • Produce the range of extracts (for 1 extract and only 1 range). • Remove the medium in the plates and add 200 μL per well of an extract range (one column per concentration). • Incubate the plates in the oven at 37° C. for 72 hrs.
6. Prepare Resazurin (Developer) and Read the Plate to
2 columns of cells+one column of resazurin alone=3 columns
200 μL/well×3 columns×6 lines=3,600 μL (total volume to be prepared: 5 mL) • Prepare 4.9 mL of medium+100 μL resazurin
Remove the medium and add 200 μL of (medium+resazurin) per well. • Incubate for 2 hours and read with fluorskan. 3rd Part: Measurement of Proliferation at 24 Hours (for t0), 72 Hrs for Extract • For the extract at 72 hrs:
200 μL/well×18 columns×6 lines (total volume to be prepared: 25 mL) • Prepare 24.5 mL of RPMI+500 μL of resazurin • Remove the medium and add 200 μL of (medium+resazurin) per well. • After 2 hours, readout with fluorskan.
The procedure described in Example 5 was used by replacing Guieranone B with tamoxifene or 5-FU (5-Fluorouracil). By following this procedure, it was possible to measure the CI50s of these compounds and of comparing them with that of Guieranone B.

IC50 (MCF7, MCF-7 mammary cancer cell line, same conditions (Table 2), read-out: Average Cl50 in μM): 11.9 ± 0.93 µM
IC50 (MCF7, MCF-7 mammary cancer cell line, same conditions (Table 2), read-out: Average Cl50 in μg/mL): 4.42 ± 0.34 µg/mL
IC50 (MCF7, mammary cancer line MCF-7, same conditions (Table 15, identical with Table 2), read-out: Average CI50 in μM): 11.9 ± 0.93 µM
IC50 (MCF7, mammary cancer line MCF-7, same conditions (Table 15, identical with Table 2), read-out: Average CI50 in μg/mL): 4.42 ± 0.34 µg/mL
Compound: CC/C(=C(\c1ccccc1)c1ccc(OCCN(C)C)cc1)c1ccccc1 [Tamoxifene, reference compound]
